Data reported in US20080194611A1, “Modulation of Cell Barrier Dysfunction” (priority 2005, published 2008).

Tests used:
[1] = meta-analysis; cited from earlier work
MDCK cells = format: cell-based

## CN1CC[C@]23c4c5ccc(O)c4O[C@H]2[C@@H](O)C=C[C@H]3[C@H]1C5 [morphine]
[1]
  dose-adjusted Cmax: 1-10 nM/L per mg of morphine
MDCK cells
  additional TEER decrease: about 15%
